Test results reported in article doi:10.1101/2025.07.09.663943, “A multiplex extracellular interactome screening method employing high-avidity nanoparticles” (bioRxiv, 2025).
No constants are given. Whether binding was seen depends on the method and setting. Some entries that bind do so weakly or less than the wild type.

Target: T1, CEACAM4 ECD-hFc-ST3 (human) (UniProt O75871)
T1 sequence: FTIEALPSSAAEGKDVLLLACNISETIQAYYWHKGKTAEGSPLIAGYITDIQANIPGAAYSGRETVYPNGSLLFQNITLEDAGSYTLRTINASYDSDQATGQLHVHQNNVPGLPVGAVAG
Assay: Multiplex Interactome Assay (MPIA; bead-based, Luminex FLEXMAP 3D); prey nanoparticle preparation of the quality control in Fig. 3B; run and kind of SC3 bead (monomeric or dimeric) not stated; both purified

B1: PD-L2 ECD-hFc-ST3 (Fc fusion, UniProt Q9BQ51 20-220)
chain: LFTVTVPKELYIIEHGSNVTLECNFDTGSHVNLGAITASLQKVENDTSPHRERATLLEEQLPLGKASFHIPQVQVRDEGQYQCIIIYGVAWDYKYLTLKVKASYRKINTHILKVPETDEVELTCQATGYPLAEVSWPNVSVPANTSHSRTPEGLYQVTSVLRLKPPPGRNFSCVFWNTHVRELTLASIDLQSQMEPRTHPT
  binding: binds
